Results reported in patent US20030092000.

Chains of the proteins cited; added tags and fusions are not shown. Residues count along the entry.
UniProt P08047, 620-713: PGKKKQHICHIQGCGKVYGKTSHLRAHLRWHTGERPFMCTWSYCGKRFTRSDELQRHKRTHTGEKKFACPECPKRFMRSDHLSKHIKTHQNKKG

Experiments:
[1] = system: T1, SBS design GL-8.3.1 (synthetic); assay: binding assay; details: reference information in exemplary ZFP data table; method not stated
T1 sequence: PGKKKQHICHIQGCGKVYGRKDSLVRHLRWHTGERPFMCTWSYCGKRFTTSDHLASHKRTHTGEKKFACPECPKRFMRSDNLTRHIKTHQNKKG

Sp1 zinc finger domain = Sp1 zinc finger domain (UniProt P08047); assay: binding assay; details: reference information in exemplary ZFP data table; source and method not stated

| Sequence | Kd [1] | Kd (Sp1 zinc finger domain) |
| --- | --- | --- |
| GAGTGTGTG (double strand) [GL-8.3.1 target] | 32 nM |  |
| GGGGCGGGG (double strand) [SP1 site] |  | 25 nM |

For at least one entry, the source does not settle the construct or the ends of the probe. For some assays here: Where a protein sequence is shown, tags need not be part of it.
